{"sequences": {"note": "Chains of the proteins cited; added tags and fusions are not shown. Lines headed by an entry give the natural chain unless they say otherwise; changes in a name come on top.", "UniProt O80982": "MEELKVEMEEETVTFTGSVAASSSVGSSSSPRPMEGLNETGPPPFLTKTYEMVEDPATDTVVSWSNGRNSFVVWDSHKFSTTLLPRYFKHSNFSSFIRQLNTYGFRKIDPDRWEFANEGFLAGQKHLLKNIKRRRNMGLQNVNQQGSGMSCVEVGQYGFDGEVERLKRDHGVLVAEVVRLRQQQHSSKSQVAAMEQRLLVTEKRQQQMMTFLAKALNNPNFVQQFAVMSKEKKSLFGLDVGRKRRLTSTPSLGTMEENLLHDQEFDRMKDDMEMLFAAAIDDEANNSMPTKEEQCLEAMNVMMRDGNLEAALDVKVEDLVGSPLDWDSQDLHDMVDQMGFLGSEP"}, "source": "paper PMC12582567", "key": {"[1]": {"molecular_target": "GST-S-HsfA2 (Arabidopsis thaliana Col-0) (UniProt J7G1E7)", "assay": "EMSA", "conditions": "weak specific band, GST nonspecific band also present; EMSA: LightShift kit 1x binding buffer, 50 ng poly(dI-dC), 2.5% glycerol, 0.05% NP-40, 5 mM MgCl2, 100 ng protein, 1.5 ng probe, 30 min, room temperature; recombinant protein; protein details: N-terminal GST (pGEX-4T); label: 5' biotin"}, "[2]": {"molecular_target": "GST-S-HsfA2 (Arabidopsis thaliana Col-0) (UniProt J7G1E7)", "assay": "competition with a labelled probe", "conditions": "unlabelled HRE reduced the complex on the HRE probe; EMSA: LightShift kit 1x binding buffer, 50 ng poly(dI-dC), 2.5% glycerol, 0.05% NP-40, 5 mM MgCl2, 100 ng protein, 1.5 ng probe, 30 min, room temperature; recombinant protein; protein details: N-terminal GST (pGEX-4T)"}, "[3]": {"molecular_target": "His6-HsfA2 (Arabidopsis thaliana Col-0) (UniProt O80982)", "assay": "streptavidin-agarose pull-down", "conditions": "His6-HsfA2 prebound with GST-S-HsfA2 (4 or 12 hr); pull-down: 50 mM Tris-HCl pH 7.5, 100 mM NaCl, 0.1% Triton X-100, poly(dI-dC), 25 C; recombinant protein; protein details: His6 (pET-28a); label: 5' biotin"}}, "note": "The exact form of at least one protein or probe is not confirmed. For part of these data: A weaker result is weaker than the reference pair of the same experiment.", "data": [{"sequence": "GAAGAAGGAAGAAGGAAGAAG (double strand) [3xHRE probe]", "values": [{"measurement": "binding result", "setting": "[1]", "value": "binds"}]}, {"sequence": "GAAGAAGGAAGAAGGAAGAAG (double strand) [unlabelled 3xHRE competitor]", "values": [{"measurement": "binding result", "setting": "[2]", "value": "binds"}]}, {"sequence": "TCGACTTCTAGAAGCTTCCAGAAATTAG (double strand) [HSE probe]", "values": [{"measurement": "binding result", "setting": "[3]", "value": "binds more weakly"}]}]}
